According to publication PMC11605992:
Results are given in words; binding and its absence hold for the method and conditions named. In cells and extracts the contact can be indirect. Some entries that bind do so weakly or less than the wild type.

Sequences of proteins named here, by UniProt entry; tags and fusion partners are left off.
UniProt P18850: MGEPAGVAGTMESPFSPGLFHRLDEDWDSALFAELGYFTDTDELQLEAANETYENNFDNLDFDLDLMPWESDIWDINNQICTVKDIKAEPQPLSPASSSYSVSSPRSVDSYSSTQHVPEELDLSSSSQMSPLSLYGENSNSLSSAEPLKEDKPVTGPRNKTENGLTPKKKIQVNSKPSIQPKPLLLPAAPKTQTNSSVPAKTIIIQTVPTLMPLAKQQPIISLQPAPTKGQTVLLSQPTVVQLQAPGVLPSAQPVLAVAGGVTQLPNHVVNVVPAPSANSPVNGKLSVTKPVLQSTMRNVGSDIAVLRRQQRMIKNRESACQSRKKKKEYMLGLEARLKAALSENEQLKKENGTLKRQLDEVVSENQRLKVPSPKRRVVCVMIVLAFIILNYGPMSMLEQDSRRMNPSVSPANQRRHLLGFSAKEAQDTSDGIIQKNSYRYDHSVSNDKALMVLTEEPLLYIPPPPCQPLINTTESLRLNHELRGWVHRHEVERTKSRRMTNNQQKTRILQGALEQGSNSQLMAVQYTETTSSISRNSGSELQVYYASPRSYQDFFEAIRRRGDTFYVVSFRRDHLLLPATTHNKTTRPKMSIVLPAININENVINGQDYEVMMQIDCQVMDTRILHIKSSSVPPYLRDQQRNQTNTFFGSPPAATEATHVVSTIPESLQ

Assays:
[1] = molecular target: ATF6 (human (endogenous in CD4+ T cells)) (UniProt P18850); test: co-IP; lysate of CD4+ T cells of active RA patients; resin coupled with ATF6 antibody, IgG as negative control; 4 °C overnight; Western blot
[2] = molecular target: ATF6 (human (endogenous in CD4+ T cells)) (UniProt P18850); test: co-IP; PBMCs of healthy controls treated with tunicamycin (5 µg/ml, 1 h), CD4+ T cells sorted, lysate; resin coupled with ATF6 or MIF antibody, IgG as negative control; 4 °C overnight; Western blot
[3] = molecular target: ATF6 (human (endogenous in CD4+ T cells)) (UniProt P18850); test: condition: only cells of healthy controls not treated with tunicamycin; co-IP; PBMCs of healthy controls not treated with tunicamycin, CD4+ T cells sorted, lysate; resin coupled with ATF6 or MIF antibody, IgG as negative control; 4 °C overnight; Western blot

B1: macrophage migration inhibitory factor (protein, UniProt P14174 1-115)
chain: MPMFIVNTNVPRASVPDGFLSELTQQLAQATGKPPQYIAVHVVPDQLMAFGGSSEPCALCSLHSIGKIGGAQNRSYSKLLCGLLAERLRISPDRVYINYYDMNAANVGWNNSTFA
- binding [1]: binds
- binding [2]: binds
- binding [3]: no binding
